This is an account of results in publication PMC3816671 (Pharmaceuticals, 2012).

The nature of the data set: general procedure: Fmoc solid-phase peptide synthesis; Rink amide resin (0.64 mmol/g); bromoacetic acid/DIC (submonomer method); DIC/HOBt for rhodamine B. Conditions: whole synthesis; for final HPLC purity: reversed phase analytical HPLC (Agilent 1200, C18); for final HPLC purity / isolated yield: scale of the general procedure 50 mg resin per MiniKan.

Some peptides are written in HELM: one residue between dots, names in brackets for other building blocks, links after the first $.

Regarding “PEPTIDE1{[RhoB].[Nlys].[Nlys].[Nlys].[Nlys].[am]}$$$$V2.0”, the isolated mass came to 23.8 mg, the “final HPLC purity” value is greater than 99% and the isolated yield stood at 49%.
On to “PEPTIDE1{[RhoB].[Nlys].[Nlys].[Nlys].[Nphe].[am]}$$$$V2.0”, for which the isolated mass turned out to be 10.3 mg, the “final HPLC purity” value is recorded as 90% and the isolated yield is on record as 23%.
On to “PEPTIDE1{[RhoB].[Nlys].[Nlys].[Npcb].[Nlys].[am]}$$$$V2.0”, for which the isolated mass is 2.67 mg, the “final HPLC purity” value was determined as 88% and the isolated yield is 5.7%.
“PEPTIDE1{[RhoB].[Npmb].[Nlys].[Nlys].[Nlys].[am]}$$$$V2.0”: the isolated mass is recorded as 1.18 mg, the “final HPLC purity” value worked out at 83% and the isolated yield stood at 2.5%.
In the same order, the values of “PEPTIDE1{[RhoB].[Npmb].[Nlys].[Nlys].[Nphe].[am]}$$$$V2.0” are 1.16 mg, 85% and 2.7%.
For “PEPTIDE1{[RhoB].[Npmb].[Nlys].[Npcb].[Nlys].[am]}$$$$V2.0”, the isolated mass was 1.01 mg, the “final HPLC purity” value stood at 83% and the isolated yield was 2.3%.
Regarding “PEPTIDE1{[RhoB].[Npmb].[Nlys].[Npcb].[Nphe].[am]}$$$$V2.0”, the isolated mass is on record as 0.89 mg, the “final HPLC purity” value stood at 82% and the isolated yield is given as 2.1%.
